# From PubChem BioAssay AID1671190 (National Center for Advancing Translational Sciences (NCATS), 2021)
# The chains behind the UniProt entries cited, without tags or fusion partners. Where a name states a change or a piece, a line headed by the entry shows the natural chain unless it says otherwise.
# UniProt P18054: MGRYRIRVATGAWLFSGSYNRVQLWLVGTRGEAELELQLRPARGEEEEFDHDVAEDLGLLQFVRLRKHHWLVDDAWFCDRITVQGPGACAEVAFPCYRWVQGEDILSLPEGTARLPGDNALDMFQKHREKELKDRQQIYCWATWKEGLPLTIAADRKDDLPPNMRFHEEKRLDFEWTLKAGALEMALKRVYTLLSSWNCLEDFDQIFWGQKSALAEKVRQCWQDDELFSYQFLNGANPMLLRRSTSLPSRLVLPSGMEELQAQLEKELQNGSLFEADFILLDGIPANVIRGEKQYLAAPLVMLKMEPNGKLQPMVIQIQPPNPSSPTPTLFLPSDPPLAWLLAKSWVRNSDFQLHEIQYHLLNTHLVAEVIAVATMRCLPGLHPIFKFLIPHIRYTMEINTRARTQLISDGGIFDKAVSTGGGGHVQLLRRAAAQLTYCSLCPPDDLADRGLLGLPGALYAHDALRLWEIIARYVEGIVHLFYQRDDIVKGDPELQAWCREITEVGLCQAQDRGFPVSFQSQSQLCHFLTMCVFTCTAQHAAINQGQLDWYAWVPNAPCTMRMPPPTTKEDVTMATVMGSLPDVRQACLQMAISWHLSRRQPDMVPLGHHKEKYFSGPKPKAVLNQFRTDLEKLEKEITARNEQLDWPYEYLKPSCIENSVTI
# The campaign covered roughly 580,000 compounds. About 6,100 (1.1%) were called active. The inconclusive results got no clear call from the source; some entries with a clear call stand among them for comparison. Calls follow the shape of the dose curve; as a rule, active = well fitted inhibition curve with a large enough effect; inconclusive = small, poorly fitted or top-dose-only effect, or another doubt; inactive = no such curve, though single readings can be large or run the other way. Potencies beside an inconclusive call are fits to weak or partial responses and may not hold up.
# Target: Polyunsaturated fatty acid lipoxygenase ALOX12 (Homo sapiens) (UniProt P18054)
# Assay: Primary qHTS assay for inhibitors of human arachidonate 12S-lipoxygenase (ALOX12): Round 2
# Settings: purified 12hLO, xylenol orange hydroperoxide absorbance; activity change, negative = inhibition: at 108 µM (top of the series) unless noted
# Method in brief: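 Purified human 12hLO at 150 nM in 25 mM Hepes, 0.01% Triton X-100, pH 7.0, preincubated 15 min at room temperature with compound. Reaction started with 40 uM arachidonic acid, 30 min at room temperature. Hydroperoxide measured by Fe-xylenol orange, 573/405 nm absorbance ratio.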
# % is scaled to controls: 0 for no effect and ±100 for the full control effect; potency is read from the fitted curve at half-maximal effect.
SMILES,"activity change, negative = inhibition",Potency
COc1ccc(CNCCCSc2ncccn2)c(OC)c1,inactive: -4.74%,–
Oc1ccc(-c2cn3ccccc3n2)cc1O,inactive: -158%,–
COc1ccc(NC2CCCN(C(=O)COc3ccc(C)cc3)C2)cc1 (stereo not given),inactive: 0%,–
COc1ccc(C(=O)N[C@H]2CC[C@]3(C)CCC([C@H](C)C(=O)N(C)Cc4cccnc4)[C@H](O)[C@H]3[C@@H]2C)cc1 (stereo not given in full),inactive: 95.4%,–
COc1ccc(NC(=O)Cn2ccn(-c3ccc(OC)cc3)c2=O)cc1,inactive: 5.32%,–
CC(=O)Nc1ccc(NC(=O)Cc2sc(-c3cccnc3)nc2-c2ccc(C)cc2)cc1,inactive: -4.09%,–
O=C(NCC1CCN(C2CCCC2)C1)Nc1ccc(Br)cc1F (stereo not given),–,"inconclusive: 7.94 µM [inhibitor, full curve, poor fit]"
Cc1ccc(S(=O)(=O)/N=C2/NC(=O)/C(=C/c3ccccn3)S2)cc1,–,"inconclusive: 31.6 µM [inhibitor, single point]"
COCCNC(=O)C1(C)CCCN(Cc2ccc(OCc3ccccc3)cc2)C1 (stereo not given),inactive: -3.6%,–
CC(=O)c1cccc(NC(=S)NC(=O)Cc2ccc(Cl)cc2)c1,–,"inconclusive: 44.7 µM [inhibitor, partial curve, poor fit]"
CNC(=O)C1(N2CCC[C@H]2C(=O)NCc2cccnc2)CCCCC1,–,"inconclusive: 7.08 µM [inhibitor, full curve]"
O=C1CC(NNc2ccccc2)C(=O)N1c1ccc(N2CCCCC2)cc1 (stereo not given),–,active: 6.31 µM
CCCCOC(=O)CCCN1C(=O)/C(=C2\SC(=S)N(CCCC(=O)OCCCC)C2=O)SC1=S,–,"inconclusive: 35.5 µM [inhibitor, single point]"
CN1CC[C@H]2CN(S(=O)(=O)c3ccc(NC(N)=O)cc3)C[C@H]21,–,"inconclusive: 17.8 µM [inhibitor, full curve, poor fit]"
S=c1[nH]nc(-c2cc(-c3ccccc3)n[nH]2)n1/N=C/c1ccccc1,inactive: 0%,–
COc1ccc(S(=O)(=O)N2CCCN(C)c3ccccc32)cc1,–,"inconclusive: 44.7 µM [inhibitor, partial curve]"
CCc1cccc(CC)c1NC(=O)COC(=O)c1ccc2ccccc2n1,–,active: 6.31 µM
CN1c2cc(C(=O)NCc3ccc(F)cc3Cl)ccc2C(=O)N2CCCCC21 (stereo not given),inactive: 7.68%,–
COC(=O)c1ccc(COC(=O)COc2ccc(C#N)cc2)o1,–,"inconclusive: 35.5 µM [inhibitor, single point]"
CC(SCc1cccc(Cl)c1)C(=O)NC(N)=O (stereo not given),inactive: -46.2%,–
CCCCOCCCNC(=O)Cn1nc(C)c2ccccc2c1=O,–,"inconclusive: 44.7 µM [inhibitor, partial curve, poor fit]"
CC1CCN(S(=O)(=O)c2ccc(C(=O)N3CCN(c4ccccc4F)CC3)cc2)CC1,–,"inconclusive: 31.6 µM [inhibitor, single point]"
CCn1cnc2c1c(=O)n(CC(=O)Nc1ccc(N3CCCC3=O)cc1)c(=O)n2Cc1ccccc1,inactive: 8.73%,–
O=C(CN1CCCC1c1cccs1)C12CC3CC(CC(C3)C1)C2 (stereo not given),–,active: 6.31 µM

SMILES,"activity change, negative = inhibition",Potency
CCNC(=O)CSc1nc2ccccc2c(=O)n1-c1cccc(OC)c1,inactive: 13.7%,–
CCCSc1nc2c(c(=O)[nH]1)C(c1ccc(C)o1)C1=C(CCCC1=O)N2 (stereo not given),–,"inconclusive: 35.5 µM [inhibitor, partial curve, poor fit]"
CC(C)C(=O)OCc1cn(-c2ccc(Cl)c(Cl)c2)nn1,inactive: 35%,–
S=c1[nH]nc(-c2ccco2)n1/N=C/c1cccc(Cl)c1Cl,–,"inconclusive: 44.7 µM [inhibitor, partial curve, poor fit]"
COc1ccc(N2CCN(C(=O)C(=O)c3c(C)[nH]c4ccccc34)CC2)cc1,inactive: -0.404%,–
Cc1ccc2[nH]cc(C(C(=O)O)N3CCN(C(c4ccccc4)c4ccccc4)CC3)c2c1 (stereo not given),–,"inconclusive: 35.5 µM [inhibitor, partial curve, poor fit]"
CC(=O)N1CCN(c2ccc(NC(=O)c3ccccc3C)cc2)CC1,–,"inconclusive: 39.8 µM [inhibitor, single point]"
CCCCC(=O)NNC(=S)NC(=O)CCC,inactive: -22.8%,–
CCOC(=O)C1CCCN(CC(=O)c2ccc(F)cc2)C1 (stereo not given),–,"inconclusive: 3.16 µM [inhibitor, full curve, poor fit]"
CN(CC(=O)Nc1cccc(F)c1)C(=O)CSc1ccccc1,–,"inconclusive: 44.7 µM [inhibitor, partial curve, poor fit]"
O=C1[C@H]2CN(Cc3ccc(F)c(Cl)c3)C[C@H]2C(=O)N1CCc1ccccc1,–,"inconclusive: 15.8 µM [inhibitor, full curve]"
COc1cc(/C=N/NC(=O)C2C3CCCCC32C)cc(Br)c1O (stereo not given),–,"inconclusive: 44.7 µM [inhibitor, partial curve, poor fit]"
CC(NCc1ccccc1Cl)C(=O)Nc1ccc(S(=O)(=O)N2CCCC2)cc1 (stereo not given),–,"inconclusive: 11.2 µM [inhibitor, full curve]"
CCCCNc1c(-c2ccc(OC)c(SC3CCCCC3)c2)nc2cc(C)ccn12,–,"inconclusive: 56.2 µM [inhibitor, partial curve, poor fit]"
CC(=O)Nc1cc(-c2ccccc2)ccc1O,–,"inconclusive: 3.16 µM [inhibitor, full curve, poor fit]"
CC(CCc1ccccc1)NC(=O)COC(=O)c1cc(C(C)(C)C)cc(C(C)(C)C)c1 (stereo not given),inactive: 10.8%,–
CC(Oc1cccc(Cl)c1)C(=O)Nc1cc(S(=O)(=O)N2CCCCC2)ccc1N1CCOCC1 (stereo not given),–,"inconclusive: 0.199 µM [inhibitor, full curve, poor fit]"
CCNc1ncc2nc(-c3cccs3)c(=O)n(CCc3ccccc3)c2n1,–,"inconclusive: 28.2 µM [inhibitor, single point]"
CCOc1ccc(CN2CCN(C(=O)c3cccc4ccccc34)CC2)cc1,–,"inconclusive: 5.62 µM [inhibitor, full curve]"
COc1ccc(S(=O)(=O)Nc2ccncc2)c(C)c1C,inactive: 5.63%,–
Cc1cc(SCNC(=O)c2ccccc2)ncn1,–,"inconclusive: 1 µM [inhibitor, full curve, poor fit]"
CCN1C(=O)c2ccccc2Sc2ccc(C(=O)O)cc21,–,"inconclusive: 100 µM [inhibitor, single point]"
CC(=O)Nc1ccc(-c2nn[nH]n2)cc1Cl,–,"inconclusive: 25.1 µM [inhibitor, partial curve, poor fit]"
COC(=O)C1=C(C)N(Cc2ccc(F)cc2)C(=S)NC1c1ccccc1 (stereo not given),–,"inconclusive: 44.7 µM [inhibitor, partial curve, poor fit]"

SMILES,"activity change, negative = inhibition",Potency
Cc1occc1-c1nnc(SCCCC(=O)c2ccc(F)cc2)n1C,inactive: -24.3%,–
COc1ccc(Nc2cccc3ccccc23)cc1,–,"inconclusive: 50.1 µM [inhibitor, partial curve, poor fit]"
COc1cccc(C2=CC(=O)C[C@H](c3ccc(OC)c(OC)c3)C2)c1,–,"inconclusive: 100 µM [inhibitor, partial curve, poor fit]"
O=[N+]([O-])c1ccccc1C=NNC(=S)NN=Cc1ccccc1[N+](=O)[O-],–,"inconclusive: 44.7 µM [inhibitor, partial curve, poor fit]"
O=C(COc1ccc2c(=O)c(-c3ccccc3)coc2c1)OC1CCCCC1,–,"inconclusive: 3.55 µM [inhibitor, partial curve, poor fit]"
CCOc1ccccc1CNc1ccc2cc(S(=O)(=O)N3CCC(C)CC3)ccc2n1,–,"inconclusive: 50.1 µM [inhibitor, partial curve, poor fit]"
Cc1ccc(C(=O)N2CCC(n3cc(-c4nc(C5CC5)no4)nn3)C2)cc1 (stereo not given),inactive: 19.4%,–
COc1cccc(-c2ccc3ncnc(NCc4ccccc4)c3c2)c1,inactive: -16.9%,–
CNC(=O)[C@@H]1C[C@@H](n2cc(CN(C)C(=O)c3cc4ccccc4s3)nn2)CN1,–,"inconclusive: 25.1 µM [inhibitor, single point]"
CN(C)C(=O)c1cccnc1OC1CCN(S(=O)(=O)c2cccc(C(F)(F)F)c2)C1 (stereo not given),inactive: -3.59%,–
O=C1/C(=C\c2ccc(O)c(O)c2)C(c2ccccc2)=NN1c1ccccc1,–,"inconclusive: 39.8 µM [inhibitor, partial curve, poor fit]"
COc1ccc(CCNC(=O)COC(=O)Cc2cccc(F)c2)cc1,–,"inconclusive: 20 µM [inhibitor, partial curve, poor fit]"
CN1/C(=C/C(=S)NC(=O)C2(C)CC2(Cl)Cl)C(C)(C)c2ccccc21 (stereo not given),–,active: 22.4 µM
COc1cc(/C=C/C(=O)OCC(=O)Nc2cc(S(=O)(=O)N3CCCCC3)ccc2C)ccc1O,inactive: 2.19%,–
COc1ccc(OC(C)C(=O)Nc2cccc([N+](=O)[O-])c2)cc1 (stereo not given),–,"inconclusive: 63.1 µM [inhibitor, partial curve, poor fit]"
COc1ccc(C(=O)CCN2CCN(c3ccccc3OC)CC2)cc1,–,"inconclusive: 15.8 µM [inhibitor, full curve, poor fit]"
CCCCCN(C(=O)CCC(=O)OCc1ccccc1F)c1c(N)n(CCCC)c(=O)[nH]c1=O,inactive: -15.8%,–
COC(=O)c1ccc2c(=O)n(CCCCCC(=O)N3CCN(c4ccc(F)cc4)CC3)c(=O)[nH]c2c1,inactive: 5.25%,–
CC1=C[C@@H](CN2CCOCC2)[C@H](C(C)C)C[C@H]1Cc1nnc(-c2ccc([N+](=O)[O-])cc2)o1,–,"inconclusive: 39.8 µM [inhibitor, single point]"
CCCCCCCCC/C=N/NC(=S)NC1CCCCC1,–,active: 28.2 µM
C[C@@H]1COC(Nc2ccc3ncnc(Nc4ccc(OCc5nccs5)c(Cl)c4)c3c2)=N1,inactive: -3.19% [at 57.4 µM],–
COc1ccc(CNC(=S)NCc2ccc(OC(C)C)cc2)cc1,–,"inconclusive: 50.1 µM [inhibitor, partial curve, poor fit]"

# Rewritten with tabs: entries from further up.
SMILES	activity change, negative = inhibition	Potency
CN1c2cc(C(=O)NCc3ccc(F)cc3Cl)ccc2C(=O)N2CCCCC21 (stereo not given)	inactive: 7.68%	–
Cc1cc(SCNC(=O)c2ccccc2)ncn1	–	inconclusive: 1 µM [inhibitor, full curve, poor fit]
COc1ccc(C(=O)CCN2CCN(c3ccccc3OC)CC2)cc1	–	inconclusive: 15.8 µM [inhibitor, full curve, poor fit]
